Reference: paper PMC10810860
No constants are given. Whether binding was seen depends on the method and setting. In cells and extracts the contact can be indirect. A result given as binding can be weak or reduced; the word gives no strength.

Chains of the proteins cited; added tags and fusions are not shown. Lines headed by an entry give the natural chain unless they say otherwise; changes in a name come on top.
UniProt Q16665: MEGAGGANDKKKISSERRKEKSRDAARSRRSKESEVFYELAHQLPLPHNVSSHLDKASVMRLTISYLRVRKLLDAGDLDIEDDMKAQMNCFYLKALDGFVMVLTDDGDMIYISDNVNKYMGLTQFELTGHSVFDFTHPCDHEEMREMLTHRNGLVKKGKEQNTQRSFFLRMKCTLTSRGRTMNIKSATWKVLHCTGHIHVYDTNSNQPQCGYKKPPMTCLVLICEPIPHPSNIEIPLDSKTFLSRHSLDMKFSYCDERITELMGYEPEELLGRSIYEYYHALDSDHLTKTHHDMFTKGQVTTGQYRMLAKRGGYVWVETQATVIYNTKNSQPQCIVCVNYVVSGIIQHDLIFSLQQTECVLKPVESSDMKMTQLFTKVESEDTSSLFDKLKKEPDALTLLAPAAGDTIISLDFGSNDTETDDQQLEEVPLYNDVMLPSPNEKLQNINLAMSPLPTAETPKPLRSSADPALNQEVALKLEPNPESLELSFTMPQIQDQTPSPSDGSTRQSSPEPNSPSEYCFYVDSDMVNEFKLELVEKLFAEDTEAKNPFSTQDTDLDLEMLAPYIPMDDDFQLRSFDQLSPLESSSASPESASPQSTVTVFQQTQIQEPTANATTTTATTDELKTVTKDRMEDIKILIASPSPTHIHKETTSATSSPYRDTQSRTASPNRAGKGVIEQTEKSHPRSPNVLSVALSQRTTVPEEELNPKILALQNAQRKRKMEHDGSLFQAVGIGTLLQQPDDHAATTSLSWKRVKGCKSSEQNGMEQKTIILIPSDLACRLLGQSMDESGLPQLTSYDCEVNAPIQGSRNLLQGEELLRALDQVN
UniProt Q96EP0: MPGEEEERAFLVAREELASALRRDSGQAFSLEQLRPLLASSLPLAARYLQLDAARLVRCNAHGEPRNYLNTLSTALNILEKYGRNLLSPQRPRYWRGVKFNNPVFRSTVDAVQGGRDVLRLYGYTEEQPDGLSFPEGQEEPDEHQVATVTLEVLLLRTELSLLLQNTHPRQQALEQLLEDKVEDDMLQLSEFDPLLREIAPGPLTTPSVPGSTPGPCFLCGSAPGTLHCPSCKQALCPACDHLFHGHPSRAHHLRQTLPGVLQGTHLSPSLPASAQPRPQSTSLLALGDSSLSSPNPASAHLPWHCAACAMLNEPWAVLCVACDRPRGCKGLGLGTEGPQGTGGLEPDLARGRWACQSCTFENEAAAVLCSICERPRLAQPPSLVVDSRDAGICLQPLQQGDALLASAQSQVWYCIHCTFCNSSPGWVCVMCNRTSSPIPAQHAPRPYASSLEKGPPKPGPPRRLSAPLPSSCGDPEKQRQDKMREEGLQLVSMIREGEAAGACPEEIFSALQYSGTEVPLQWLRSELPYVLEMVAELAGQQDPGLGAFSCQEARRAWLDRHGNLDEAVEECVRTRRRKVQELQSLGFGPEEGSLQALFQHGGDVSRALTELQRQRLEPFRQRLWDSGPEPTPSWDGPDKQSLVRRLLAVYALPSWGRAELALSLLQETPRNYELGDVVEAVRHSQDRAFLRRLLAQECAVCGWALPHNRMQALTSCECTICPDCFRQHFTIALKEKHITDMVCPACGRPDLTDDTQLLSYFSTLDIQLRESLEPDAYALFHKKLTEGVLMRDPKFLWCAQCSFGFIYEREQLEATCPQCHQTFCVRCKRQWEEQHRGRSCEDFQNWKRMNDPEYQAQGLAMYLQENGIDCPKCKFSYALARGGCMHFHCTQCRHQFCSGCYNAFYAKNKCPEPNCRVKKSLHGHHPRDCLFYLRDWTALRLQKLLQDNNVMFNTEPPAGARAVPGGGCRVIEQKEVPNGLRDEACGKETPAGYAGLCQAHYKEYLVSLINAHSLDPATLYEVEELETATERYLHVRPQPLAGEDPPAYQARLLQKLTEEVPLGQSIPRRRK

Biological target: HIF1α^PA, prolyl hydroxylation-resistant mutant of HIF1α (UniProt Q16665)
Assay: co-IP; co-IP/IB from lysates of HEK293T cells transfected as indicated (antibody with Protein A/G agarose overnight, then immunoblot)

binding: binds
Substance: HOIP (HOIL-1L interacting protein), full-length, expressed by transfection (from UniProt Q96EP0 1-1072) (enzyme)
